Results from PubChem BioAssay (NCATS).
Several values for one entry are separate records, joined by “and”; a condition that tells them apart may be missing. Equal values may be shown once. This list was built around the results that the source calls inconclusive (neither active nor inactive); the mix of calls is not that of the screen. For some assays here: Potencies of inconclusive entries are doubtful fits and often do not repeat. More than one record can exist for a structure, and the calls need not agree. Activity calls are given as the source filed them. Unless noted, calls come from the whole dose curve; as a rule, active = well fitted curve in the direction sought with a large enough effect; inconclusive = small, poorly fitted or top-dose-only effect, or another doubt; inactive = no such curve, though single readings can be large; an effect the other way counts as inactive or inconclusive. Bridge positions count the residues as written; N and C are the ends. Square brackets hold non-standard residues; d marks the D form. Peptide text beside a SMILES is read from it. * marks the point of attachment. ξ: configuration not given here. Octanoyl(6-Me) = CCC(C)CCCCC(=O)*; ξThr(3R) = C[C@@H](O)C(N)C(=O)O; dDab = NCC[C@@H](N)C(=O)O; Dab = NCC[C@H](N)C(=O)O

Legend:
[1] = Quantitative High-Throughput drug screen in 47 multiple myeloma cell lines against the NCATS MIPE library collection: UTMC2_PLB cell viability assay (AID 1919868); settings: CellTiter-Glo ATP luminescence, 48 h; viability (% of DMSO control): at 45.8 µM (top of the series); note: nearly all actives have a fitted effect of over 55% in size
How it was run: (§1)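 Viability after 48 h drug exposure was measured as ATP-dependent luminescence. Cells, 500 per well, sat at 37 °C under 5% CO2; DMSO wells set 100%, media-only wells 0%.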

[2] = Quantitative High-Throughput drug screen in 47 multiple myeloma cell lines against the NCATS MIPE library collection: PE2_PLB cell viability assay (AID 1919869); note: nearly all actives have a fitted effect of over 35% in size
How it was run: as §1

[3] = Quantitative High-Throughput drug screen in 47 multiple myeloma cell lines against the NCATS MIPE library collection: PCM6_Riken cell viability assay (AID 1919870); settings: CellTiter-Glo ATP, 48 h; viability (% of control): at 45.8 µM (top of the series); note: nearly all actives have a fitted effect of over 30% in size
How it was run: as §1

[4] = Quantitative High-Throughput drug screen in 47 multiple myeloma cell lines against the NCATS MIPE library collection: OPM2_DSMZ cell viability assay (AID 1919872); note: nearly all actives have a fitted effect of over 30% in size
How it was run: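 Primary qHTS used for cherry-picking: cells at 500/well, library compounds for 48 h (37C, 5% CO2), luminescent ATP assay.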

[5] = Quantitative High-Throughput drug screen in 47 multiple myeloma cell lines against the NCATS MIPE library collection: KMS11_JCRBsus cell viability assay (AID 1919873); note: nearly all actives have a fitted effect of over 50% in size
How it was run: as §1

[6] = Quantitative High-Throughput drug screen in 47 multiple myeloma cell lines against the NCATS MIPE library collection: KMS28BM_JCRB cell viability assay (AID 1919874); note: nearly all actives have a fitted effect of over 35% in size
How it was run: as §1

[7] = qHTS for identification of novel therapeutic agents for treatment of microphthalmiaassociated transcription factor (MiT) renal cell carcinoma (RCC) (AID 1963991; calls by dose curve); settings: TFE3-RCC UOK109 viability, CellTiter-Glo, 48 h; active = Z-AUC below -0.8 in all three lines
How it was run: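 UOK109/UOK124/UOK145 (TFE3 fusions, three partners); 500 cells/well; MIPE v4.0, 1912 cpds, 11 conc.; 48 h, 37 C; CellTiter-Glo, 15 min RT; lum. Norm.: DMSO 100%, empty 0%.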

HEK293 = test: Cytotoxic Profiling of Annotated Libraries Using Quantitative High-Throughput Screening (AID 1296008); settings: Five cell lines viability, CellTiter-Glo ATP luminescence, 48-72 h; max response: stronger effect = lower value; note: nearly all actives have a fitted effect of over 60% in size; for max response: % is set by controls: 0 for no effect and ±100 for the full control effect
How it was run: (§2)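 Cells exposed to compounds for 48 or 72 hr at 37 degrees Celsius. Viability read as ATP-coupled luminescence with CellTiter-Glo after 10 min at room temperature.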

HaCat = test: as above; settings: Five cell lines viability, CellTiter-Glo ATP luminescence, 48-72 h; max response: stronger effect = lower value
How it was run: as §2

KB-3-1 = test: as above; settings: Five cell lines viability, CellTiter-Glo ATP luminescence, 48-72 h; max response: stronger effect = lower value
How it was run: as §2

MCC-13 = test: qHTS assay to identify novel small-molecules to repurpose for Merkel cell carcinoma treatment (AID 1296009); settings: MCC and control cell lines, CellTiter-Glo viability, 72 h; series mostly up to 46 µM; note: nearly all actives have a fitted effect of over 60% in size
How it was run: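 Cells were incubated with compound for 72 hr at 37 degree celsius before CellTiter-Glo addition. Luminescence was normalized with no-cell wells as full cytotoxicity and DMSO as baseline.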

CRL-7250 = normal cell line; test: Cytotoxic Profiling of Annotated Libraries Using Quantitative High-Throughput Screening (AID 1296008); settings: Five cell lines viability, CellTiter-Glo ATP luminescence, 48-72 h; max response: stronger effect = lower value; note: nearly all actives have a fitted effect of over 60% in size; for max response: % is set by controls: 0 for no effect and ±100 for the full control effect
How it was run: as §2

[8] = Quantitative High-Throughput drug screen in 47 multiple myeloma cell lines against the NCATS MIPE library collection: RPMI8226_ATCC cell viability assay (AID 1919871); note: nearly all actives have a fitted effect of over 30% in size
How it was run: as §1

NIH3T3 = test: Cytotoxic Profiling of Annotated Libraries Using Quantitative High-Throughput Screening (AID 1296008); settings: Five cell lines viability, CellTiter-Glo ATP luminescence, 48-72 h; max response: stronger effect = lower value; note: nearly all actives have a fitted effect of over 60% in size; for max response: % is set by controls: 0 for no effect and ±100 for the full control effect
How it was run: as §2
Potency is the fitted concentration of half-maximal effect.

SMILES: COc1cc(N2CCC(N3CCN(C)CC3)CC2)ccc1Nc1ncc(Cl)c(Nc2ccccc2S(=O)(=O)C(C)C)n1
- Potency [1]: inactive
- Potency [2]: inconclusive: 1.66 µM [cytotoxic, full curve, poor fit]
- Potency [3]: inconclusive: 3.32 µM [cytotoxic, full curve, poor fit]
- Potency [4]: inconclusive: 1.66 µM [cytotoxic, full curve, poor fit]
- Potency [5]: inconclusive: 0.166 µM [cytotoxic, partial curve, poor fit]
- Potency [6]: inconclusive: 0.418 µM [cytotoxic, full curve, poor fit]
- Potency [7]: active: 14.8 µM
- Potency (HEK293): active: 1.16 µM
- Potency (HaCat): active: 3.66 µM
- Potency (KB-3-1): inconclusive: 833 nM [inhibitor, full curve, poor fit] and active: 920 nM
- Potency (MCC-13): inconclusive: 18.7 µM [inhibitor, partial curve, poor fit]

SMILES: CCC(C)CCCCC(=O)N[C@@H](CCN)C(=O)NC(C(=O)N[C@H](CCN)C(=O)N[C@@H]1CCNC(=O)C([C@@H](C)O)NC(=O)[C@@H](CCN)NC(=O)[C@@H](CCN)NC(=O)[C@@H](CC(C)C)NC(=O)[C@H](Cc2ccccc2)NC(=O)[C@H](CCN)NC1=O)[C@@H](C)O (stereo partly drawn) ({Octanoyl(6-Me)}-[Dab][ξThr(3R)][dDab][dDab][Dab]F[dL][dDab][dDab][ξThr(3R)]; lactam 4-C)
- Potency [1]: inconclusive: 0.0209 µM [cytotoxic, full curve, poor fit]
- Potency [5]: inconclusive: 1.32 µM [rising, partial curve, poor fit]
- Potency [6]: inactive
- outcome (CRL-7250): inactive

SMILES: COc1cc2nc(N3CCN(C(=O)c4ccco4)CC3)nc(N)c2cc1OC
- Potency [1]: active: 11.8 µM
- Potency [8]: inconclusive: 37.2 µM [cytotoxic, single point]
- Potency [4]: inconclusive: 33.2 µM [cytotoxic, single point]
- Potency [7]: inconclusive: 37.2 µM [falling, single point]
- Potency (HEK293): inconclusive: 14.6 µM [inhibitor, single point] and inconclusive: 37.2 µM [inhibitor, single point]
- Potency (HaCat): inconclusive: 18.7 µM [inhibitor, partial curve, poor fit]
- Potency (KB-3-1): inconclusive: 20.6 µM [inhibitor, single point]
- Potency (NIH3T3): inconclusive: 11.8 µM [inhibitor, single point]

SMILES: COc1cc([C@@H]2c3cc4c(cc3[C@H](O)[C@H]3COC(=O)[C@@H]23)OCO4)cc(OC)c1OC
- Potency [1]: active: 0.209 µM
- Potency (HEK293): active: 0.132 µM
- max response (HaCat): inactive: 4.88%
- Potency (KB-3-1): active: 0.235 µM
- Potency (MCC-13): active: 0.662 µM

SMILES: CC(C)n1c(C=C[C@H](O)C[C@H](O)CC(=O)O)c(-c2ccc(F)cc2)c2ccccc21
- Potency [1]: inconclusive: 14.8 µM [cytotoxic, partial curve, poor fit]
- Potency [3]: inconclusive: 20.9 µM [cytotoxic, partial curve, poor fit]
- Potency [8]: active: 18.7 µM
- Potency [4]: inconclusive: 13.2 µM [cytotoxic, partial curve]
- Potency [6]: inconclusive: 20.9 µM [cytotoxic, partial curve, poor fit]
- Potency [7]: inconclusive: 4.18 µM [falling, full curve]
- Potency (HEK293): active: 14.8 µM
- Potency (HaCat): inconclusive: 37.2 µM [inhibitor, single point]
- Potency (KB-3-1): active: 11.8 µM
- Potency (NIH3T3): active: 16.6 µM

SMILES: CC(C)Nc1cc(C(F)(F)F)cc2nc(NC(=O)c3cccnc3)nn12
- Potency [1]: inconclusive: 0.0132 µM [rising, full curve, poor fit]
- Potency [2]: inactive
- Potency [8]: inactive
- Potency [4]: inconclusive: 0.0012 µM [cytotoxic, full curve, poor fit]
- Potency [7]: inconclusive: 5.9 µM [falling, partial curve, poor fit]
- Potency (HEK293): inconclusive: 16.4 µM [inhibitor, single point]
- max response (HEK293): inactive: -16.8%
- Potency (HaCat): inconclusive: 37.2 µM [inhibitor, partial curve, poor fit]

SMILES: CC(C)(C)NC(=O)Nc1cccc(Nc2ncc(F)c(NC(C)(C)CO)n2)c1
- Potency [1]: inconclusive: 4.69 µM [cytotoxic, full curve, poor fit]
- Potency [2]: active: 18.7 µM
- Potency [3]: inconclusive: 0.166 µM [cytotoxic, full curve, poor fit]
- Potency [8]: inactive
- Potency [5]: inconclusive: 14.8 µM [cytotoxic, partial curve]
- Potency [6]: inactive
- Potency (HEK293): inconclusive: 16.4 µM [inhibitor, single point]
- Potency (HaCat): active: 10.5 µM and active: 16.4 µM
- Potency (NIH3T3): inconclusive: 26.4 µM [inhibitor, single point] and inconclusive: 29.1 µM [inhibitor, single point]

SMILES: O=c1cc(O)c(Cl)c[nH]1
- Potency [1]: inconclusive: 0.0037 µM [rising, full curve, poor fit]
- Potency [4]: inconclusive: 11.8 µM [cytotoxic, partial curve, poor fit]
- Potency [5]: inconclusive: 14.8 µM [cytotoxic, partial curve, poor fit]
- Potency [6]: inconclusive: 10.5 µM [cytotoxic, partial curve]
- Potency [7]: inconclusive: 1.18 µM [falling, full curve]
- max response (HEK293): inactive: 3.54% and inactive: 0.705%
- max response (HaCat): inactive: -15.6%
- outcome (HaCat): inactive

SMILES: Cc1ccc2c(c1)C(=O)[C@]1(O)CCN(c3ccccc3)C1=N2
- Potency [1]: active: 4.69 µM
- Potency [2]: inactive
- Potency [3]: inactive
- Potency [8]: inconclusive: 11.8 µM [cytotoxic, partial curve, poor fit]
- Potency [5]: inconclusive: 29.6 µM [cytotoxic, partial curve, poor fit]
- Potency (HEK293): inconclusive: 14.8 µM [inhibitor, partial curve]
- Potency (HaCat): inconclusive: 37.2 µM [inhibitor, single point] and inconclusive: 29.1 µM [inhibitor, single point]
- Potency (KB-3-1): inconclusive: 20.9 µM [inhibitor, partial curve] and inconclusive: 18.4 µM [inhibitor, single point]
- Potency (NIH3T3): inconclusive: 29.6 µM [inhibitor, partial curve] and inconclusive: 13 µM [inhibitor, partial curve, poor fit]

SMILES: Cc1ccc(C(=O)N(CCCN)[C@@H](c2oc3cc(Cl)ccc3c(=O)c2Cc2ccccc2)C(C)C)cc1
- Potency [1]: inconclusive: 13.2 µM [cytotoxic, partial curve, poor fit]
- Potency [2]: inconclusive: 9.35 µM [cytotoxic, full curve]
- Potency [3]: active: 9.35 µM
- Potency [8]: inconclusive: 23.5 µM [cytotoxic, partial curve]
- Potency [6]: inconclusive: 13.2 µM [cytotoxic, partial curve]
- Potency [7]: active: 37.2 µM
- Potency (HEK293): active: 0.0662 µM
- Potency (HaCat): inconclusive: 5.9 µM [inhibitor, full curve, poor fit]
- Potency (NIH3T3): inconclusive: 11.8 µM [inhibitor, partial curve, poor fit]

SMILES: CCOC(=O)N[C@@H]1CC[C@@H]2[C@@H](C1)C[C@H]1C(=O)O[C@H](C)[C@H]1[C@@H]2C=Cc1ccc(-c2cccc(F)c2)cn1
- Potency [1]: inconclusive: 13.2 µM [cytotoxic, partial curve, poor fit]
- Potency [2]: inconclusive: 37.2 µM [cytotoxic, single point]
- Potency [3]: inactive
- Potency [4]: inactive
- Potency [5]: inconclusive: 26.4 µM [cytotoxic, single point]
- Potency [6]: inconclusive: 20.9 µM [cytotoxic, partial curve, poor fit]
- Potency [7]: inconclusive: 16.6 µM [falling, partial curve]
- Potency (HEK293): inconclusive: 33.2 µM [inhibitor, single point]
- Potency (HaCat): inconclusive: 37.2 µM [inhibitor, partial curve, poor fit]
- Potency (KB-3-1): inconclusive: 26.4 µM [inhibitor, single point]

SMILES: C[C@@]1(C(=O)Nc2ccc(F)nc2)CCCN1c1nc(Nc2cc(C3CC3)[nH]n2)c2cccn2n1
- Potency [3]: inconclusive: 14.8 µM [cytotoxic, partial curve]
- Potency [8]: inconclusive: 0.0235 µM [cytotoxic, full curve]
- Potency [5]: active: 0.0296 µM
- Potency [7]: inconclusive: 20.9 µM [falling, partial curve]
- Potency (HEK293): inconclusive: 1.46 µM [inhibitor, full curve, poor fit]
- Potency (HaCat): inconclusive: 4.61 µM [inhibitor, full curve]
- Potency (KB-3-1): inconclusive: 2.35 µM [inhibitor, full curve]
- Potency (MCC-13): inconclusive: 8.33 µM [inhibitor, partial curve]

SMILES: COc1cc(N2CCC(N3CCN(C)CC3)CC2)ccc1Nc1ncnc(Nc2ccccc2S(=O)(=O)C(C)C)n1
- Potency [1]: inconclusive: 3.72 µM [cytotoxic, full curve, poor fit]
- Potency [2]: inconclusive: 5.9 µM [cytotoxic, full curve, poor fit]
- Potency [8]: inconclusive: 18.7 µM [cytotoxic, partial curve, poor fit]
- Potency [4]: inconclusive: 26.4 µM [cytotoxic, single point]
- Potency [5]: inconclusive: 0.105 µM [rising, full curve, poor fit]
- Potency [6]: inconclusive: 33.2 µM [cytotoxic, single point]
- Potency (HEK293): inconclusive: 8.33 µM [inhibitor, full curve, poor fit]
- Potency (HaCat): inconclusive: 9.35 µM [inhibitor, full curve, poor fit]
- Potency (KB-3-1): inconclusive: 16.4 µM [inhibitor, single point]
- Potency (NIH3T3): active: 3.32 µM and active: 3.66 µM
- Potency (MCC-13): inconclusive: 26.4 µM [inhibitor, single point]
